From patent publication US20050171094A1, “Pyrrolopyrimidine derivatives” (priority 2002, published 2005)
Some entries share one result that the patent states for a list of compounds.

Protein sequences, listed by entry. Tags and fused reporters are not part of them. Lines headed by an entry give the natural chain unless they say otherwise; changes in a name come on top.
UniProt P49841: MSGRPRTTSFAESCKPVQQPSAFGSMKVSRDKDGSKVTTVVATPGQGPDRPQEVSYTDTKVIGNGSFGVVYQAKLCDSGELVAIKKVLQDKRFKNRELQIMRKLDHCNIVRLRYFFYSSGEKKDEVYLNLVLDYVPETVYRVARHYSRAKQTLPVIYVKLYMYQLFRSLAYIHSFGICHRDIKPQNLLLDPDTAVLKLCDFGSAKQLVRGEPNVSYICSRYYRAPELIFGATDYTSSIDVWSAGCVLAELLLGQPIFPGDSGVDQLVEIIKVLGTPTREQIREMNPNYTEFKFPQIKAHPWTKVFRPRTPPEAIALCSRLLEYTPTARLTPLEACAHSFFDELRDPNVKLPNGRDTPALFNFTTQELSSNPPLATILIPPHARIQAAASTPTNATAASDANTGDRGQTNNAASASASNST

The compounds below were run against recombinant human GSK-3β (Homo sapiens, UniProt P49841) (assay: Determination of inhibition of GSK-3 enzyme activity). Conditions: phospho-glycogen synthase peptide-2 substrate, [γ-33P]ATP; IC50 class printed in nM; read-out: GSK-3 enzyme-inhibiting activity (IC50 value).
Type: biochemical
Protocol: Determination of Inhibition of GSK-3 Enzyme Activity
To five μl of a test compound in 5% DMSO as a solvent, 25 μl of phospho-glycogen synthase peptide-2 substrate solution [6 μm phospho-glycogen synthase peptide-2, 20 μm ATP, 16 mM MOPS buffer, pH 7.0, 0.2 mM EDTA, 20 mM magnesium acetate, 0.1 μl [γ-^33P]ATP (specific activity: about 110 TBq/mmol)] was added, and 20 μl of a GSK-3β enzyme solution [10 mU recombinant human GSK-3β, 20 mM MOPS buffer, pH 7.0, 1 mM EDTA, 0.1% polyoxyethylenelauryl ether (23 Lauryl Ether; Brij 35), 5% glycerol, 0.1% β-mercaptoethanol] was further added to initiate the reaction. After reacting at room temperature for 20 minutes, an equal amount of 200 mM phosphate solution was added to stop the reaction. 90 μl of the reaction product was allowed to adsorb to the MultiScreen PH plate (Millipore), and washed with 100 mM phosphate solution. After drying said plate, 30 μl of MicroScint-O (Packard Bioscience) was added, and cpm was measured by a scintilation counter to examine the inhibition activity. As used herein, Phospho GS Peptide 2 means […]P)-Glu-Asp-Glu-Glu-Glu (SEQ ID NO: 1).

Row | SMILES | IC50 [nM]
1 | N#Cc1c2n(c3c(=S)[nH]cnc13)CCN(C(=O)Nc1ccc(C(=O)O)cc1)CC2 [compound 796] | < 50
2 | N#Cc1c2n(c3c(=S)[nH]cnc13)CCN(C(=O)NCCC(=O)O)CC2 [compound 731] | < 50
3 | CC1CCCCn2c1c(C#N)c1nc[nH]c(=S)c12 (stereo not drawn) [compound 2164] | < 50
4 | N#Cc1c2n(c3c(=S)[nH]cnc13)CCN(C(=O)NCC(=O)O)CC2 [compound 735] | < 50
5 | N#Cc1c2n(c3c(=S)[nH]cnc13)CCN(C(=O)NCCCC(=O)O)CC2 [compound 736] | < 50
6 | CSCCC(NC(=O)N1CCc2c(C#N)c3nc[nH]c(=S)c3n2CC1)C(=O)O (stereo not drawn) [compound 732] | < 50
